Data on two molecules can be found in article PMC8479171.

These are yes or no findings as the source states them, for the method shown. Binding seen in cells or lysates may run through a third protein. Here binding means that the protein was enriched with, or labelled near, the bait; the list need not be complete. For some assays here: Sequences can lack the tags named with a protein.

Test [1] has as its target T1, Gimap5 (GTPase of immunity-associated protein 5), over-expressed from pcDNA3.1-Gimap5/3×Flag-EGFP (human) (UniProt Q96F15).
T1 sequence: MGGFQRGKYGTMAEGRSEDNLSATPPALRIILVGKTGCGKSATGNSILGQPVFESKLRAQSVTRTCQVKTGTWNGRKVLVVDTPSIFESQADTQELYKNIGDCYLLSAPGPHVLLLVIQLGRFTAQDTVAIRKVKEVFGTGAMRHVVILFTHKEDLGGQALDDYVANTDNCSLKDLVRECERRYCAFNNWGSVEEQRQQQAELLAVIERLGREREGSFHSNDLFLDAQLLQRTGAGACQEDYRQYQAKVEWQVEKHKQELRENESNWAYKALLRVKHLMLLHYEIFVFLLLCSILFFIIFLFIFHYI
The test is described as follows: affinity purification with mass spectrometry; Co-IP with rabbit anti-Gimap5 (10 μg) and Protein A-Agarose from lysates of Beas-2b and PC9 cells with Gimap5 overexpression (50mM Tris HCl pH7.4, 150mM NaCl, 1mM EDTA, 1% Triton X-100); tandem mass spectrometry.

Test [2] deals with M6PR (mannose 6-phosphate receptor) (human (endogenous in Beas-2b and PC9)). Kind of test: affinity purification with mass spectrometry; secondary immunoprecipitation: rabbit-anti M6PR (10 μg) added to the immunoprecipitate of Gimap5 from Beas-2b and PC9 cells; Protein A-Agarose; tandem mass spectrometry.

For “M6PR (mannose 6-phosphate receptor) (human (endogenous in Beas-2b and PC9))”, the binding result in test [1] was “binds”.

B1: breast cancer anti-estrogen resistance protein 1 (protein, UniProt P56945 1-870)
chain: MNHLNVLAKALYDNVAESPDELSFRKGDIMTVLEQDTQGLDGWWLCSLHGRQGIVPGNRLKILVGMYDKKPAGPGPGPPATPAQPQPGLHAPAPPASQYTPMLPNTYQPQPDSVYLVPTPSKAQQGLYQVPGPSPQFQSPPAKQTSTFSKQTPHHPFPSPATDLYQVPPGPGGPAQDIYQVPPSAGMGHDIYQVPPSMDTRSWEGTKPPAKVVVPTRVGQGYVYEAAQPEQDEYDIPRHLLAPGPQDIYDVPPVRGLLPSQYGQEVYDTPPMAVKGPNGRDPLLEVYDVPPSVEKGLPPSNHHAVYDVPPSVSKDVPDGPLLREETYDVPPAFAKAKPFDPARTPLVLAAPPPDSPPAEDVYDVPPPAPDLYDVPPGLRRPGPGTLYDVPRERVLPPEVADGGVVDSGVYAVPPPAEREAPAEGKRLSASSTGSTRSSQSASSLEVAGPGREPLELEVAVEALARLQQGVSATVAHLLDLAGSAGATGSWRSPSEPQEPLVQDLQAAVAAVQSAVHELLEFARSAVGNAAHTSDRALHAKLSRQLQKMEDVHQTLVAHGQALDAGRGGSGATLEDLDRLVACSRAVPEDAKQLASFLHGNASLLFRRTKATAPGPEGGGTLHPNPTDKTSSIQSRPLPSPPKFTSQDSPDGQYENSEGGWMEDYDYVHLQGKEEFEKTQKELLEKGSITRQGKSQLELQQLKQFERLEQEVSRPIDHDLANWTPAQPLAPGRTGGLGPSDRQLLLFYLEQCEANLTTLTNAVDAFFTAVATNQPPKIFVAHSKFVILSAHKLVFIGDTLSRQAKAADVRSQVTHYSNLLCDLLRGIVATTKAAALQYPSPSAAQDMVERVKELGHSTQQFRRVLGQLAAA
Consider B1, for which the binding result in test [2] is listed as “binds”.
